Measured data: PubChem BioAssay AID1224826 (NIAID, 2016)
The deposit covers about 17,000 reagents; shown is an unselected part. About 1,110 of them (6.6%) were called active. 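Active means lowered or raised reporter signal; replicate intensities are raw and not normalised per plate.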 Reagent sequences are not shown.

Purpose: 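Genes that change LPS-induced Tnf promoter activity in mouse macrophages when knocked down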 (primary screen)
Cells: RAW264.7 G9 macrophages from mouse bearing reporters for p65 (GFP) and the Tnf promoter (mCherry)
Reagent: siRNA pool against mouse genes, 100 nM
Time to read-out: 16 h of LPS stimulation, after 2 days of siRNA transfection
Conditions: bacterial lipopolysaccharide (Salmonella minnesota R595), 10 ng/ml
Measured: 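Nuclear mCherry signal of the Tnf promoter reporter measured by imaging after background removal, scaled to each plate median and turned into robust z-scores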
Scale: Tnf reporter robust z-score: higher = stronger Tnf promoter reporter signal after LPS; Tnf reporter intensity: higher = stronger Tnf promoter reporter signal
Active means: 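a well counts as active at a score of -1.3 or below (Tlr4 knock-down control median) or above 3 (raised signal); controls and wells holding fewer than 50 cells are excluded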
Meaning of the calls: active = Tnf reporter clearly lowered or raised; inactive = no clear change in Tnf reporter

| gene symbol | Tnf reporter robust z-score | fewer than 50 cells in well | Tnf reporter intensity, replicate 1 | Tnf reporter intensity, replicate 2 | outcome |
| --- | --- | --- | --- | --- | --- |
| Spp2 | 6.54 | enough cells in well | 335 | 306 | active |
| Dpyd | -0.85 | enough cells in well | 161 | 150 | inactive |
| Hsdl2 | 0.14 | enough cells in well | 234 | 82.2 | inactive |
| Slc35a4 | – | fewer than 50 cells per well; well left out of calls | 23.7 | 40.5 | inactive |
| Mrps16 | -0.24 | enough cells in well | 259 | 69.5 | inactive |
| Kcnd3 | -0.69 | enough cells in well | 209 | 96.9 | inactive |
| Kcne5 | 0.34 | enough cells in well | 229 | 195 | inactive |
| Grb2 | -1.51 | enough cells in well | 121 | 120 | active |
| Spire2 | 0.65 | enough cells in well | 132 | 112 | inactive |
| Lkaaear1 | 1.36 | enough cells in well | 294 | 100 | inactive |
| Rpe | 0.48 | enough cells in well | 159 | 138 | inactive |
| Tspan2 | 1.65 | enough cells in well | 259 | 243 | inactive |
| Vnn3 | 1.33 | enough cells in well | 165 | 135 | inactive |
| Tmed4 | -0.75 | enough cells in well | 234 | 47.1 | inactive |
| Pla2r1 | 0.44 | enough cells in well | 325 | 184 | inactive |
| Kcnq5 | -0.1 | enough cells in well | 217 | 156 | inactive |
| Kcnma1 | -0.86 | enough cells in well | 145 | 125 | inactive |
| Trim44 | 0.4 | enough cells in well | 134 | 67.2 | inactive |
| Zfp90 | 0.92 | enough cells in well | 172 | 153 | inactive |
| Klra7 | -0.31 | enough cells in well | 196 | 149 | inactive |
| Eri3 | 0.3 | enough cells in well | 144 | 141 | inactive |
| Chrnb2 | -0.64 | enough cells in well | 220 | 137 | inactive |
| Vmn1r188 | -1.05 | enough cells in well | 78.3 | 57.5 | inactive |
| Tnfsf8 | -0.68 | enough cells in well | 161 | 115 | inactive |
| Zbtb1 | 1.18 | enough cells in well | 195 | 150 | inactive |
| Pim1 | 0.07 | enough cells in well | 244 | 125 | inactive |
| Fndc10 | 0.84 | enough cells in well | 270 | 260 | inactive |
| Smyd2 | -0.43 | enough cells in well | 243 | 181 | inactive |
| Tbrg3 | 1.91 | enough cells in well | 212 | 137 | inactive |
| Canx | -0.1 | enough cells in well | 127 | 176 | inactive |
| Or2l13 | 1.93 | enough cells in well | 429 | 151 | inactive |
| Mrps7 | -0.52 | enough cells in well | 189 | 86.1 | inactive |
| Kansl1l | -0.37 | enough cells in well | 96.3 | 145 | inactive |
| Gabbr1 | 0.42 | enough cells in well | 253 | 324 | inactive |
| Sel1l3 | – | fewer than 50 cells per well; well left out of calls | 113 | 65.5 | inactive |
| Noa1 | -0.86 | enough cells in well | 151 | 49.2 | inactive |
| Scap | -0.71 | enough cells in well | 251 | 146 | inactive |
| Banp | -0.41 | enough cells in well | 131 | 132 | inactive |
| Acot13 | 0.74 | enough cells in well | 149 | 115 | inactive |
| Rbfox1 | 0.86 | enough cells in well | 250 | 167 | inactive |
| Cct3 | 0.16 | enough cells in well | 276 | 204 | inactive |
| B830004H01Rik | -0.49 | enough cells in well | 182 | 163 | inactive |
| Chst3 | 1.58 | enough cells in well | 257 | 263 | inactive |
| Hsd17b8 | -0.53 | enough cells in well | 237 | 111 | inactive |
| Defb15 | -0.83 | enough cells in well | 170 | 88.6 | inactive |
| Glb1l2 | 0.9 | enough cells in well | 34.9 | 215 | inactive |
| Wtap | 1.73 | enough cells in well | 222 | 169 | inactive |
| Sox2 | -0.89 | enough cells in well | 231 | 120 | inactive |
| Cep112 | – | fewer than 50 cells per well; well left out of calls | 88.9 | 29 | inactive |
| Clec2e | 1.1 | enough cells in well | 207 | 212 | inactive |
| Arhgef28 | 0.27 | enough cells in well | 398 | 184 | inactive |
| Rnf40 | – | fewer than 50 cells per well; well left out of calls | 134 | 49 | inactive |
| Lce1e | 2.12 | enough cells in well | 400 | 146 | inactive |
| Psd2 | – | fewer than 50 cells per well; well left out of calls | 63.5 | 100 | inactive |
| Or8u8 | 1.28 | enough cells in well | 221 | 169 | inactive |
| Capstert | 1.88 | enough cells in well | 344 | 39.9 | inactive |
| Wdr36 | 0.81 | enough cells in well | 182 | 191 | inactive |
| Or2at4 | – | fewer than 50 cells per well; well left out of calls | 88.3 | 50.9 | inactive |
